Publication doi:10.1101/2022.07.08.499356
These are yes or no findings as the source states them, for the method shown. Binding seen in cells or lysates may run through a third protein. Some entries that bind do so weakly or less than the wild type.

Target: T1, MEC-2::mCherry, full-length MEC-2 (A isoform) (C. elegans) (UniProt Q27433)
T1 sequence: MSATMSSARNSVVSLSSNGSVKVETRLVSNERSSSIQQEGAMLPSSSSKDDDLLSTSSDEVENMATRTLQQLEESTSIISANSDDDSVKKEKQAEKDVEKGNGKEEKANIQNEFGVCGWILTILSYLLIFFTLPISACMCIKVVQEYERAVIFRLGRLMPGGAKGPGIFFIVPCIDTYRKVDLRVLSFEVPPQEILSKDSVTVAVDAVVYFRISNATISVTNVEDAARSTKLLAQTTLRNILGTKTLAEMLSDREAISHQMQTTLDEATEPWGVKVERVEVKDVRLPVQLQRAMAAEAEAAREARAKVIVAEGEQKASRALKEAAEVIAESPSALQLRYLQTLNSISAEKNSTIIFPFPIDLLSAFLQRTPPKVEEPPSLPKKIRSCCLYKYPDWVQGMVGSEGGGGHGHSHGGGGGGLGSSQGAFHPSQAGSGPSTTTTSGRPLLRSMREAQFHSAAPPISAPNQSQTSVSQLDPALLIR
Experiment: FRET or BRET

For “MEC-2(R385H)::Venus (from UniProt Q27433 1-481)”, the binding was “binds”.
